Laboratory results taken from PubChem BioAssay AID2685 (National Center for Advancing Translational Sciences (NCATS), 2010).
This is one part of the list. These are further read-outs of the screen, such as a control signal, another cell line or another target. No call is given for them. The list favours compounds with an active or inconclusive main result. The note in brackets gives the kind of curve behind each potency; many fits are weak.

Assay: qHTS Assay for Lipid Storage Modulators in Drosophila S3 Cells;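 on cell number change: cells counted by Cell Tracker Red CMTPX staining in the red channel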
Conditions: BODIPY lipid droplet fluorescence, 18-24 h; for cell number change: measured here: cell count max response, cells fed with added oleic acid
How it was run: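 Drosophila S3 cells loaded with oleic acid (400 uM, as added) and compounds at several concentrations; lipid droplets imaged by 488-nm laser-scanning cytometry, 500–530 nm intensity and object ratio to cell channel. Percent activity normalized to 20 uM Triacsin C.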

[1] = measured here: cell number channel AC50, cells fed with added oleic acid
[2] = measured here: lipid fluorescence (Fed channel) AC50, cells fed with added oleic acid

Structure (SMILES) | cell number change [%] | AC50 [1] | AC50 [2]
N#Cc1ccccc1NC(=O)C(=O)NCCc1csc(-c2ccc(F)cc2)n1 | -31.3 | 8.2 µM [falling, partial curve] | 
COCCN(C(=O)CSc1nncn1-c1ccccc1)c1c(N)n(Cc2ccccc2)c(=O)[nH]c1=O | -44.2 | 0.461 µM [falling, full curve] | 29.1 µM [falling, partial curve, poor fit]
CC1=C(C(=O)OC(C)C)C(c2ccccc2Cl)CC(=O)N1 (configuration not stated) | -36.6 | 8.2 µM [falling, partial curve] | 25.9 µM [falling, partial curve, poor fit]
c1ccc(OCCOc2ccccc2-c2nnco2)cc1 | -8.01 |  | 0.326 µM [rising, partial curve, poor fit]
O=C(O)c1cc(Sc2ccc(Br)cc2)nc2ccccc12 | 50.8 | 6.51 µM [rising, full curve, poor fit] | 6.51 µM [rising, full curve]
COc1cc(CC(=O)Nc2ccc(Cl)c(C(F)(F)F)c2)cc(OC)c1OC | 28.3 |  | 7.31 µM [rising, partial curve]
CCNC(=O)CC1C(=O)N(c2ccc(C)cc2)C(=O)N1CCC(C)C (configuration not stated) | -8.11 |  | 6.51 µM [falling, partial curve]
CC(C)(C)N(NC(=O)c1ccccc1)C(=O)c1ccc(C(=O)N(NC(=O)c2ccccc2)C(C)(C)C)cc1 | -13.9 |  | 0.58 µM [falling, partial curve, poor fit]
CCc1cc(C(=O)NNC(=S)NC2CCCCC2)cs1 |  |  | 0.58 µM [rising, single point]
COc1ccc(CNc2ccc3c(c2)nc(C)n3C)cc1OC | -0.276 |  | 2.31 µM [falling, partial curve]
CCOc1ccc2nc(NC(=O)c3ccc(OC)c(S(=O)(=O)N4CCOCC4)c3)sc2c1 | -70.4 | 23.1 µM [falling, single point] | 
CNC(=O)c1ccc(CN(C)CC(=O)Nc2ccccc2C(=O)NC2CC2)cc1 | -6.07 | 0.00731 µM [falling, full curve, poor fit] | 0.00517 µM [falling, full curve, poor fit]
O=C(CCCN1C(=O)/C(=C/c2cccs2)SC1=S)Nc1ccc(O)c(C(=O)O)c1 | 2.97 |  | 32.6 µM [rising, single point]
O=C(O)c1ccccc1SCc1nc2ccccn2c1Br | 14 | 2.59 µM [falling, partial curve] | 6.51 µM [falling, single point]
